Data as given in PubChem BioAssay AID652259 (Drosophila RNAi Screening Center, 2013)
The deposit covers about 22,000 reagents; shown is an unselected part of those with a known target gene and a result. Over the whole deposit, 233 (1.1%) are marked active. 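Light values are raw, unnormalised plate reads; the ratio scores behind the reporter calls were not deposited.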 Names joined by + are all predicted targets of the reagent. Not stated in the record: the amount of reagent, the time to read-out, the dose of the treatment.

Test: 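Knock-downs that push a Wingless-driven reporter up or down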 (primary screen)
Cells: Drosophila clone 8 imaginal disc epithelial cells
Reagents: long dsRNA against Drosophila genes
Challenge: pathway stimulated by co-transfected Wingless expression plasmid
Measured: 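Firefly luciferase from a tcf-site Wingless reporter, measured alongside co-transfected Renilla luciferase that tracks transfection; pathway stimulated by a Wingless plasmid; the firefly-to-Renilla ratio is not deposited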
Direction: firefly reporter light: higher = more Wg reporter light, before normalisation; Renilla control light: higher = more transfected or surviving cells
Hit rule: 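a knock-down is a candidate when at least two out of four statistical tests show it departing from its plate mean; one test alone signals a weak candidate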
Calls: active = candidate regulator (raises or lowers reporter); inactive = not a candidate

predicted target | dsRNA | reporter change call, replicate 1 | firefly reporter light, replicate 1 | firefly reporter light, replicate 2 | Renilla control light, replicate 1 | Renilla control light, replicate 2 | call
Als2 | DRSC11806 | – | 5925 | – | 2652 | – | inactive
Gr94a | DRSC13597 | – | 3137 | – | 1334 | – | inactive
Grasp65 | DRSC10917 | – | 12785 | – | 4096 | – | inactive
Ir51b | DRSC05540 | – | 19335 | – | 16004 | – | inactive
Edem1 | DRSC18573 | – | 2325 | 3680 | 1021 | 1517 | inactive
asRNA:CR43259 + CG31089 | DRSC15934 | – | 21622 | – | 19526 | – | inactive
bnl | DRSC13377 | – | 3384 | – | 1869 | – | inactive
bnl | DRSC16913 | – | 2102 | 3427 | 405 | 513 | inactive
TwdlR | DRSC14736 | – | 8464 | – | 3852 | – | inactive
CG7381 | DRSC16238 | – | 11088 | – | 3147 | – | inactive
Acp76A | DRSC09665 | – | 12928 | – | 4327 | – | inactive
hui | DRSC05977 | – | 18656 | – | 3785 | – | inactive
CG42713 | DRSC01050 | – | 19145 | – | 8132 | – | inactive
L | DRSC06666 | – | 3746 | – | 1945 | – | inactive
L | DRSC06668 | – | 7202 | – | 2065 | – | inactive
CG15611 | DRSC06563 | – | 13562 | – | 2763 | – | inactive
CG15611 | DRSC06564 | – | 5948 | – | 2603 | – | inactive
CG7879 | DRSC08600 | – | 10724 | – | 2557 | – | inactive
Ugt37A2 | DRSC15861 | – | 20743 | – | 6688 | – | inactive
Tsp97E | DRSC16019 | – | 2200 | 8404 | 1137 | 2311 | inactive
CG7239 | DRSC03038 | – | 9993 | – | 1442 | – | inactive
CG2608 | DRSC02709 | – | 6770 | – | 2636 | – | inactive
ms(3)K81 | DRSC14746 | – | 6055 | – | 3239 | – | inactive
Uxs | DRSC10941 | – | 4646 | – | 2032 | – | inactive
fz4 | DRSC18780 | Wg reporter activity lowered | 13672 | – | 8978 | – | active
MFS14 | DRSC06524 | – | 17692 | 7.25e5 | 6250 | 2.78e5 | inactive
Mpv17 | DRSC17198 | – | 17104 | – | 11456 | – | inactive

Next part, starting with the last 5 of the part before.
predicted target | dsRNA | reporter change call, replicate 1 | firefly reporter light, replicate 1 | firefly reporter light, replicate 2 | Renilla control light, replicate 1 | Renilla control light, replicate 2 | call
ms(3)K81 | DRSC14746 | – | 6055 | – | 3239 | – | inactive
Uxs | DRSC10941 | – | 4646 | – | 2032 | – | inactive
fz4 | DRSC18780 | Wg reporter activity lowered | 13672 | – | 8978 | – | active
MFS14 | DRSC06524 | – | 17692 | 7.25e5 | 6250 | 2.78e5 | inactive
Mpv17 | DRSC17198 | – | 17104 | – | 11456 | – | inactive
Cyp4d8 | DRSC11131 | – | 4192 | – | 2074 | – | inactive
CG9386 | DRSC16485 | – | 11063 | – | 1785 | – | inactive
SkpD | DRSC22208 | – | 8.67e5 | 8.31e5 | 2.15e5 | 2.27e5 | inactive
sPLA2 | DRSC06041 | – | 2853 | 7936 | 999 | 1532 | inactive
Cyp6a15Psi | DRSC07377 | – | 2132 | 6674 | 785 | 2615 | inactive
Polr1D + DCTN6-p27 | DRSC02094 | – | 3564 | 7772 | 1056 | 2946 | inactive
CG12164 | DRSC06115 | – | 19336 | – | 6471 | – | inactive
CG12164 | DRSC21777 | – | 2.80e5 | 3.59e5 | 1.67e5 | 1.34e5 | inactive
Patr-1 | DRSC14159 | – | 5014 | 7472 | 987 | 1252 | inactive
CG5731 | DRSC02883 | – | 2697 | 6848 | 985 | 2642 | inactive
CG2747 | DRSC15450 | – | 14004 | – | 3680 | – | inactive
CG7164 | DRSC03018 | – | 2172 | 8040 | 828 | 5011 | inactive
Osi8 | DRSC12277 | – | 13616 | – | 4749 | – | inactive
spas | DRSC15929 | – | 2282 | 8489 | 839 | 2547 | inactive
CG31219 | DRSC15140 | – | 16176 | – | 2816 | – | inactive
Ir94b | DRSC21439 | – | 7.02e5 | 5.77e5 | 3.42e5 | 2.05e5 | inactive
CG12395 | DRSC19453 | – | 24596 | – | 9553 | – | inactive
Ltn1 | DRSC11056 | – | 2741 | – | 1386 | – | inactive
Ltn1 | DRSC11058 | – | 15955 | – | 6032 | – | inactive
CG15471 | DRSC18054 | – | 21895 | – | 10978 | – | inactive
Cpr49Ad | DRSC07284 | – | 8089 | – | 4007 | – | inactive
Eig71Eh | DRSC11155 | – | 8738 | – | 4282 | – | inactive
CG18558 | DRSC00525 | – | 4203 | 7449 | 1227 | 2628 | inactive
CG18558 | DRSC21593 | – | 5.27e5 | 5.74e5 | 2.59e5 | 2.60e5 | inactive
Irp-1A | DRSC16719 | – | 4297 | 10112 | 1893 | 2010 | inactive
Gcn5 | DRSC11248 | – | 5112 | – | 992 | – | inactive
VGAT | DRSC07160 | – | 7675 | – | 2944 | – | inactive
Prp31 | DRSC10735 | – | 4632 | – | 1849 | – | inactive
skl | DRSC10050 | – | 6449 | – | 3008 | – | inactive
CG4783 | DRSC15644 | – | 3434 | – | 1175 | – | inactive
Polr2K | DRSC05535 | – | 21349 | – | 12608 | – | inactive
Sk2 | DRSC08556 | – | 3944 | – | 1081 | – | inactive
CG32856 | DRSC13124 | – | 2685 | – | 946 | – | inactive
jp | DRSC02213 | – | 12901 | – | 2240 | – | inactive
jp | DRSC02744 | – | 4614 | 7474 | 1058 | 2416 | inactive
dyw | DRSC18228 | – | 13754 | – | 8912 | – | inactive
Rel | DRSC16819 | – | 7222 | – | 2315 | – | inactive
gkt | DRSC00821 | – | 2103 | 8189 | 683 | 3093 | inactive
CG13484 | DRSC10026 | – | 5188 | – | 2215 | – | inactive
CG6839 | DRSC10723 | – | 4314 | – | 1498 | – | inactive
CG12934 | DRSC06247 | – | 2368 | 4663 | 295 | 1671 | inactive
Rpn12 | DRSC11275 | – | 3866 | – | 1459 | – | inactive
CG15252 | DRSC17981 | – | 19557 | – | 9337 | – | inactive
CG30197 | DRSC22394 | – | 4.42e5 | 4.35e5 | 1.86e5 | 1.85e5 | inactive
Tsp42Ek | DRSC06187 | – | 2129 | 9513 | 669 | 3745 | inactive
CG7156 | DRSC16207 | – | 1828 | 6436 | 848 | 1901 | inactive
